PubChem BioAssay AID504804 | Drosophila RNAi Screening Center, 2011

Assay: 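Fly genes whose loss lessens doxorubicin-driven cell death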 (primary screen)
System: Drosophila Kc cells
Reagents: long dsRNA against Drosophila genes, 0.5 µg dsRNA per well
Duration: 96 h (48 h knock-down, then 48 h drug)
Treatment: doxorubicin 5 µg/ml for 48 h, added 48 h after dsRNA
Measured: 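Luminescent ATP counts per replicate, not normalised, reflecting viable cells after 48 h dsRNA knock-down followed by 48 h of 5 µg/ml doxorubicin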
Direction: raw ATP luminescence: higher = more viable cells, protection from doxorubicin
Rule for the call: 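Active when both duplicate wells lie at least 2 SD above the plate mean and protection is confirmed by rescreening and independent dsRNAs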
The screen tested about 19,000 reagents; below is a random part of those that have a named target and a result. In the full data, 47 (0.25%) are marked active. 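Signals are raw, not normalised; exact z-scores behind calls not deposited; actives needed confirmation, so some wells reaching 2 SD are inactive.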

| target | dsRNA | raw ATP luminescence, replicate 1 | raw ATP luminescence, replicate 2 | outcome |
| --- | --- | --- | --- | --- |
| CG13771 | DRSC02277 | 28413 | 25060 | inactive |
| CG15525 | DRSC15062 | 54020 | 52450 | inactive |
| LManV | DRSC03223 | 81813 | 56763 | inactive |
| mRpL4 | DRSC03562 | 74977 | 60363 | inactive |
| CG14402 | DRSC02386 | 69780 | 66310 | inactive |
| CG4291 | DRSC00650 | 1.09e5 | 71987 | inactive |
| Polr3B | DRSC07536 | 50647 | 44290 | inactive |
| Wwox | DRSC03030 | 1.27e5 | 83967 | inactive |
| Glys | DRSC16130 | 41940 | 17857 | inactive |
| CG30159 | DRSC04981 | 62760 | 66130 | inactive |
| CG31960 | DRSC00281 | 32823 | 37197 | inactive |
| rdgC | DRSC11387 | 51927 | 54200 | inactive |
| CG33630 | DRSC14546 | 58240 | 49113 | inactive |
| Gr22f | DRSC00076 | 3.21e5 | 3.33e5 | inactive |
| CG34370 | DRSC03913 | 73547 | 62793 | inactive |
| CG34370 | DRSC04142 | 60460 | 49883 | inactive |
| CG34370 | DRSC04143 | 49720 | 53047 | inactive |
| CG34370 | DRSC04144 | 40470 | 44473 | inactive |
| Rab26 | DRSC11837 | 23313 | 17773 | inactive |
| Rab26 | DRSC11838 | 63133 | 51030 | inactive |
| Rab26 | DRSC11839 | 60307 | 55110 | inactive |
| RpS17 | DRSC11271 | 62543 | 58097 | inactive |
| Galt | DRSC03161 | 1.07e5 | 80347 | inactive |
| Xpac | DRSC18730 | 48130 | 43580 | inactive |
| CG33282 | DRSC00422 | 40523 | 37993 | inactive |
| Jon74E | DRSC10617 | 40780 | 36110 | inactive |
| Ucp4A | DRSC19996 | 3.87e5 | 3.20e5 | inactive |
| spab | DRSC07112 | 44560 | 68963 | inactive |
| MED10 | DRSC10474 | 37857 | 40687 | inactive |
| spen | DRSC00839 | 93190 | 78700 | inactive |
| aurA | DRSC16905 | 56007 | 55307 | inactive |
| asl | DRSC12319 | 45033 | 14650 | inactive |
| Rala | DRSC18703 | 37190 | 43950 | inactive |
| CG17141 | DRSC15178 | 61140 | 60630 | inactive |
| CG14883 | DRSC15007 | 83460 | 83350 | inactive |

Records listed so far whose target name begins with M or m:
| target | dsRNA | raw ATP luminescence, replicate 1 | raw ATP luminescence, replicate 2 | outcome |
| --- | --- | --- | --- | --- |
| mRpL4 | DRSC03562 | 74977 | 60363 | inactive |
| MED10 | DRSC10474 | 37857 | 40687 | inactive |

Additional reagents follow.
| target | dsRNA | raw ATP luminescence, replicate 1 | raw ATP luminescence, replicate 2 | outcome |
| --- | --- | --- | --- | --- |
| Rpp25 | DRSC05002 | 62050 | 57177 | inactive |
| Irp-1A | DRSC16719 | 45330 | 32910 | inactive |
| PIG-O | DRSC06123 | 69920 | 61773 | inactive |
| rec | DRSC14998 | 64290 | 62360 | inactive |
| rec | DRSC15656 | 77130 | 61900 | inactive |
| Vsx1 | DRSC18349 | 24960 | 41780 | inactive |
| Vsx1 | DRSC18350 | 11700 | 15830 | inactive |
| CG14082 | DRSC10086 | 62077 | 67993 | inactive |
| Rpt4 | DRSC18713 | 33950 | 32420 | inactive |
| CG4704 | DRSC15628 | 71080 | 70170 | inactive |
| CG3746 | DRSC04412 | 63717 | 49720 | inactive |
| Cen | DRSC02704 | 78997 | 62560 | inactive |
| CG6066 | DRSC15959 | 71030 | 54450 | inactive |
| Jon65Ai | DRSC09731 | 96340 | 78560 | inactive |
| CG6015 | DRSC15948 | 34497 | 43617 | inactive |
| CG10211 | DRSC02027 | 32990 | 99673 | inactive |
| CG14072 | DRSC02375 | 47777 | 68017 | inactive |
| Drp1 | DRSC00574 | 80777 | 59480 | inactive |
| CG10505 | DRSC04075 | 59123 | 66427 | inactive |
| TBC1D16 | DRSC02841 | 38267 | 46677 | inactive |
| CG11608 | DRSC14334 | 61060 | 50653 | inactive |
| Gat | DRSC17144 | 52320 | 59890 | inactive |
